HELM strings list residues between dots; [ac] is acetyl, [am] amide, other brackets name non-standard units.
Assay: general procedure: Fmoc solid-phase peptide synthesis; Rink amide MBHA resin (0.678 mmol/g); HATU/DIPEA; PyBOP/DIPEA for DOTA
Settings: for conjugation yield: conjugation step; for step yield / final HPLC purity: late stage modification step; for final HPLC purity: analytical HPLC (Agilent LC/MS 1260 Infinity II, Poroshell 120 EC-C18)

Substance	conjugation yield	step yield	final HPLC purity
DOTA-Lys(4-(p-iodophenyl)butyryl)-Phe(4-Cl)-c[D-Cys-Aph(Hor)-D-Aph(Cbm)-Lys(ivDde)-Thr-Cys]-D-Tyr-NH2	68%		
DOTA-Lys(4-(p-methoxyphenyl)butyryl)-Phe(4-Cl)-c[D-Cys-Aph(Hor)-D-Aph(Cbm)-Lys(ivDde)-Thr-Cys]-D-Tyr-NH2	69%		
PEPTIDE1{[DOTA].[Lys(IPB)].[Phe(4-Cl)].[dC].[Aph(Hor)].[D-Aph(Cbm)].K.T.C.[dY].[am]}$PEPTIDE1,PEPTIDE1,4:R3-9:R3$$$V2.0		9.9%	> 96%
PEPTIDE1{[DOTA].[Lys(MPB)].[Phe(4-Cl)].[dC].[Aph(Hor)].[D-Aph(Cbm)].K.T.C.[dY].[am]}$PEPTIDE1,PEPTIDE1,4:R3-9:R3$$$V2.0		8.7%	> 94%

Source: paper PMC9503898 (Pharmaceuticals, 2022)
